The campaign covered roughly 340,000 compounds. About 4,500 (1.3%) were called active. Inconclusive results, whose numbers are uncertain, are shown with a selection of clear calls. The call rests on the fitted dose curve; in most records, active means well fitted inhibition curve with a large enough effect; inconclusive means small, poorly fitted or top-dose-only effect, or another doubt; inactive means no such curve, though single readings can be large or run the other way. Where the call is inconclusive, the potency comes from a doubtful curve fit.
These molecules were tested against DNA polymerase beta (Homo sapiens) (UniProt P06746) (assay: qHTS Assay for Inhibitors of DNA Polymerase Beta). Details: Pol beta primer extension/strand displacement, fluorescence kinetic; series mostly up to 114 µM.
Summary of the method: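 Preincubation: enzyme (10 nM) with compound, 15 min, RT. Reaction: substrate added to 50 nM final. Reads: 0 and 10 min. Analysis: normalized, Hill fit.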
Potency means the concentration at half of the fitted maximal effect.

| SMILES | Potency |
| --- | --- |
| O=S(=O)(c1ccc(OCC(O)CN2CCC(Cc3ccccc3)CC2)cc1)N1CCOCC1 (stereo not drawn) | inconclusive: 5.01 µM [inhibitor, full curve, poor fit] |
| CC(=O)N(CCC(c1ccccc1)c1ccco1)Cc1cccs1 (stereo not drawn) | inconclusive: 15.8 µM [inhibitor, single point] |
| C/C=C(\C)C(=O)N1CC2(CC(c3cccc(NC(=O)CC(c4ccccc4)c4ccccc4)c3)=NO2)C[C@H]1C(N)=O (stereo partly drawn) | inconclusive: 39.8 µM [inhibitor, single point] |
| CC(C)CC(C(=O)Nc1oc(-c2ccco2)c(-c2ccco2)c1C#N)N1C(=O)c2ccccc2C1=O (stereo not drawn) | active: 31.6 µM |
| COC(=O)c1ccccc1-n1c(CCC(=O)O)ccc1-c1ccccc1 | inconclusive: 0.355 µM [inhibitor, full curve] |
| CCOC(=O)C1CCCN(C(=O)c2[nH]c3ccccc3c2Sc2ccc(Cl)cc2)C1 (stereo not drawn) | inconclusive: 89.1 µM [inhibitor, single point] |
| CCOc1ccc(-c2nc(S(=O)(=O)c3ccccc3)c(NC)o2)cc1 | inactive |
| COc1cc2c(-c3ccccc3Cl)nc3c(c(C)nn3-c3ccccc3)c2cc1OC | inactive |
| CCc1ccc2occ(CC(=O)Nc3sc4c(c3C(=O)OC)CCC4)c2c1 | inactive |
| Cc1sc2nc3c4ccccc4c(NCc4ccco4)nn3c(=O)c2c1C | active: 11.2 µM |
| COc1cccc(-n2nnnc2SCC(=O)Nc2ccc3c(c2)OCCO3)c1 | inconclusive: 0.1 µM [inhibitor, full curve, poor fit] |
| CC(C)(C)OC(=O)NCCCC[C@H](NC(=O)c1nc[nH]c1C(=O)NCc1ccc(CNC(=O)OC(C)(C)C)cc1)C(=O)OC(C)(C)C | inconclusive: 25.1 µM [inhibitor, single point] |
| CCCCn1cc(S(=O)(=O)c2ccc(Cl)cc2)c(=O)c2cc(F)c(N3CCCCC3)cc21 | inactive |
| O=C(CCN1C(=O)c2cccc3cccc(c23)C1=O)NCc1ccco1 | inconclusive: 56.2 µM [inhibitor, single point] |
| COc1ccc(NC(=O)c2c[nH]n3c(=O)cc(C4CCN(C(=O)OC(C)(C)C)CC4)nc23)cc1Cl | inactive |
| COc1cccc(CNCCSc2nnnn2C)c1OCc1ccc(Cl)cc1 | inactive |
| N#CCc1nc(CSc2nc3ccccc3s2)cs1 | inconclusive: 10 µM [inhibitor, partial curve, poor fit] |
| COc1ccc(C(=O)O/N=C(\N)c2cccc(C)c2)cc1OC | inconclusive: 63.1 µM [inhibitor, partial curve, poor fit] |

Taken from above.
COc1cccc(CNCCSc2nnnn2C)c1OCc1ccc(Cl)cc1 – Potency: inactive
COc1cc2c(-c3ccccc3Cl)nc3c(c(C)nn3-c3ccccc3)c2cc1OC – Potency: inactive

From PubChem BioAssay AID485314 (National Center for Advancing Translational Sciences (NCATS), 2010)
